Some of the results follow. Residues, ends and D or L forms follow the SMILES beside them. *: point of attachment. Cbz = O=C(OCc1ccccc1)*
Key:
Assay in all cases: log2 fold change, soluble protein after heating vs DMSO (PISA); higher = thermal stabilisation; K562 cells, 10 uM, 30 min; active = over 0.2 and 3.5 SD of the protein, either way, in both replicates (recomputed)
erlotinib = compound: C#Cc1cccc(Nc2ncnc3cc(OCCOC)c(OCCOC)cc23)c1 [erlotinib]
Method in brief: (§1)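 Values are thermal stability changes relative to control samples and are taken from duplicates. They are stated as log2 fold changes. Before quantification by TMTpro 16plex LC-MS/MS with equalised channel sums, K562 cells at 2×10^6 cells/mL were treated with 10 μM compound for 30 min, heated in aliquots for 3 min across 48°C-58°C, pooled, extracted in PBS with 0.5% NP-40 at 4°C, and centrifuged at 21,000xg for 90 min to give the soluble supernatant.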

Chains of the proteins cited; added tags and fusions are not shown. Lines headed by an entry give the natural chain unless they say otherwise; changes in a name come on top.
UniProt Q9ULG6: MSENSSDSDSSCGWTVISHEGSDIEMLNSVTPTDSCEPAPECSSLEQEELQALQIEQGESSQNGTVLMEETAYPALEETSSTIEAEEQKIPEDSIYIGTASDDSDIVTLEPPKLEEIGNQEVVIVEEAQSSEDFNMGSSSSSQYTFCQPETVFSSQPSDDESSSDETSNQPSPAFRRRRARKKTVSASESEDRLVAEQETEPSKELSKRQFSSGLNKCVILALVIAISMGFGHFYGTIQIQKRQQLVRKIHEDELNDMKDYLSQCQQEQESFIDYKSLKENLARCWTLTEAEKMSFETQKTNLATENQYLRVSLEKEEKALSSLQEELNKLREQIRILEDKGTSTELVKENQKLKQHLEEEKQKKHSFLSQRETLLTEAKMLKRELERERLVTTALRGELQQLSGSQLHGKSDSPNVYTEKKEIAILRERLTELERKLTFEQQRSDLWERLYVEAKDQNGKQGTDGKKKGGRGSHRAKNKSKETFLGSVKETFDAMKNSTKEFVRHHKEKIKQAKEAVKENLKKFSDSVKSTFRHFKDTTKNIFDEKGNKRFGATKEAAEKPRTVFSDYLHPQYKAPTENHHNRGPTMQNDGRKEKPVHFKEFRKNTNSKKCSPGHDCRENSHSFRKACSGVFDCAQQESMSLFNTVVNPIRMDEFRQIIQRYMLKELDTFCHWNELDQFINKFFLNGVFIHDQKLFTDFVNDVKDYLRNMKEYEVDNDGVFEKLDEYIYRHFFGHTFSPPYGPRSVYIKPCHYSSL
UniProt P49427: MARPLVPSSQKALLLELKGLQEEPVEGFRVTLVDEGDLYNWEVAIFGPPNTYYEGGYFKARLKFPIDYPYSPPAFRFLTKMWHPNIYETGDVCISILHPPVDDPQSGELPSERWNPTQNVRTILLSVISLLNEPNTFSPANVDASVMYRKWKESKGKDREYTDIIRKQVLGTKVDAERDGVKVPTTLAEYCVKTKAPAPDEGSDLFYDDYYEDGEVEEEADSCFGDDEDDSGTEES
UniProt Q8IWP9: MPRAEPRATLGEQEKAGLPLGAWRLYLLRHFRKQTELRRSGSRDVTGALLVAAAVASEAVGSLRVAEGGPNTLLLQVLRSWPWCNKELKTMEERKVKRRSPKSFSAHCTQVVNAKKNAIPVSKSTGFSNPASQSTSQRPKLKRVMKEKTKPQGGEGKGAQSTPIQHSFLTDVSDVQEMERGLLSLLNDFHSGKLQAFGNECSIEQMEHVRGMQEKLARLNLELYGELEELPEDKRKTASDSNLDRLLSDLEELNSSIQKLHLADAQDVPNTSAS
UniProt Q96MW1: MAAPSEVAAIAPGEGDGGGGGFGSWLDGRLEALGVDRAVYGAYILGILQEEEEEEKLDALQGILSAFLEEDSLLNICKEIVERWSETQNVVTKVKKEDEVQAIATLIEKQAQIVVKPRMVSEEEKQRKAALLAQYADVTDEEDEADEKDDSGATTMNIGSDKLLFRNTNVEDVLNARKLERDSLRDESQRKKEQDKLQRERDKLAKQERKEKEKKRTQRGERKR
UniProt Q6PII3: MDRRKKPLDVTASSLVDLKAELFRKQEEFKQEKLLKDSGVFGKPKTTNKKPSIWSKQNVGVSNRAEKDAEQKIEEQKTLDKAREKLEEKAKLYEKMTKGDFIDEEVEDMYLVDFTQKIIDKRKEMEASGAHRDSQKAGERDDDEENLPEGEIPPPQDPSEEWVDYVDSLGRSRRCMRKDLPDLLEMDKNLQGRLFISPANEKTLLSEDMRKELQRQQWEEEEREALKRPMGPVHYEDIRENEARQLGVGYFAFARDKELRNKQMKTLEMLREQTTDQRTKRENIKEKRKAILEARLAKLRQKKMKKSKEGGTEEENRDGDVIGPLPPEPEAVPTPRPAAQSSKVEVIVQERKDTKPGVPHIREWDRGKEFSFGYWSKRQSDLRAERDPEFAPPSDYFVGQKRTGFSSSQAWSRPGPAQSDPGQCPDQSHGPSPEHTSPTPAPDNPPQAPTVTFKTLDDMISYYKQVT
UniProt Q13185: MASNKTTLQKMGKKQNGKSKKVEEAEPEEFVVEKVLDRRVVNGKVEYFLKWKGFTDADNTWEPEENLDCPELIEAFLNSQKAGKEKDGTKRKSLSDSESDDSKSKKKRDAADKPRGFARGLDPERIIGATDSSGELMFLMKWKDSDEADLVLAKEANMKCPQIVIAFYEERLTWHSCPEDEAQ
UniProt Q96A33: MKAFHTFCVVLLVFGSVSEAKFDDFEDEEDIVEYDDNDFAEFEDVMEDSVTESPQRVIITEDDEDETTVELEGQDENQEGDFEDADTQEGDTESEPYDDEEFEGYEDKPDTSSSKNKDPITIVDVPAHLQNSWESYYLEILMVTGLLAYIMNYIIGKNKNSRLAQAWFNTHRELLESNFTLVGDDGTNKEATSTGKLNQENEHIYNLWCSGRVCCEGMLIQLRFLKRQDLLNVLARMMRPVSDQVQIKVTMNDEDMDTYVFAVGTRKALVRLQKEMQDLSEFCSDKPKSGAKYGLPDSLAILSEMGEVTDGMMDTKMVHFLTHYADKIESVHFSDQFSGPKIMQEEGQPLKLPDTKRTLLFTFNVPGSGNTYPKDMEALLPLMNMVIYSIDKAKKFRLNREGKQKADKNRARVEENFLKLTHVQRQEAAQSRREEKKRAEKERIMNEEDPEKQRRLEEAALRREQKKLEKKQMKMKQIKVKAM
UniProt P40227, whole entry, looked up: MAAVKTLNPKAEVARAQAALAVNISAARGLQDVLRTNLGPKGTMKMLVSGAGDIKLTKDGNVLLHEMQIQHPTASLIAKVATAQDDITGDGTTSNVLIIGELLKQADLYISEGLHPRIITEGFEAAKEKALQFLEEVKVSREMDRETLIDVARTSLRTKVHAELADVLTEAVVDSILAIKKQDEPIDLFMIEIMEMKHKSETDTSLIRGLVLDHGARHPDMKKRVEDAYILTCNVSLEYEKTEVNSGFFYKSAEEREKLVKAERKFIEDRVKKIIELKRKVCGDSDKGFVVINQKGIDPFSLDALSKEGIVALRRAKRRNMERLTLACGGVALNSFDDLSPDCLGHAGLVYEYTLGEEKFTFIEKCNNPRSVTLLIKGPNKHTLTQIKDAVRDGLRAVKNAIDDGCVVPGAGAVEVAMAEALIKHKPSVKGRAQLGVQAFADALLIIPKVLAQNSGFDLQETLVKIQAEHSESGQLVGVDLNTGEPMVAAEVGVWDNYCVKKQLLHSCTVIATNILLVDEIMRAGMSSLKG
UniProt P15529: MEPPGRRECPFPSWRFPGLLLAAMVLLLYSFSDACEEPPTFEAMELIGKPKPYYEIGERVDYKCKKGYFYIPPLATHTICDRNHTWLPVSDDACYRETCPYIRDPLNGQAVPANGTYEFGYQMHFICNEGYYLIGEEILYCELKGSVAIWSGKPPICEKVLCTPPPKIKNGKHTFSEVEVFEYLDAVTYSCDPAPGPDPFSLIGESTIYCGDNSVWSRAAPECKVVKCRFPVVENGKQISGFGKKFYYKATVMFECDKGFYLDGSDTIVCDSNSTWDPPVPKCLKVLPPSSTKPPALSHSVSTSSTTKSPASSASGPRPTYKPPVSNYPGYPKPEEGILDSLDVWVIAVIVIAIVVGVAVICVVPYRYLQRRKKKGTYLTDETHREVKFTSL
UniProt Q9GZT6: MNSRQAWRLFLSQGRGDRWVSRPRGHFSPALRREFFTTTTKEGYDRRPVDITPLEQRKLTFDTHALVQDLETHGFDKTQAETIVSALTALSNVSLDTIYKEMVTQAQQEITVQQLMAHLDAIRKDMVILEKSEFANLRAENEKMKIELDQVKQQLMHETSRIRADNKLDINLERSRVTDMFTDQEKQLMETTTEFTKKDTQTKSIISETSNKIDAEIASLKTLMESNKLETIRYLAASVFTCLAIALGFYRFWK
UniProt Q8N4T8: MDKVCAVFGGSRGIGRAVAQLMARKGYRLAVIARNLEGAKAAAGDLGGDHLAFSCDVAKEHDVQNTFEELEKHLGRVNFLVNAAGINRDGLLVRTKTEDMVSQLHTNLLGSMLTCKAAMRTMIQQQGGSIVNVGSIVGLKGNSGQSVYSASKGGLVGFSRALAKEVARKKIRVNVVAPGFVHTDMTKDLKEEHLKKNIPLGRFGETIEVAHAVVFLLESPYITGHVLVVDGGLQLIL
UniProt Q8N163, whole entry, looked up: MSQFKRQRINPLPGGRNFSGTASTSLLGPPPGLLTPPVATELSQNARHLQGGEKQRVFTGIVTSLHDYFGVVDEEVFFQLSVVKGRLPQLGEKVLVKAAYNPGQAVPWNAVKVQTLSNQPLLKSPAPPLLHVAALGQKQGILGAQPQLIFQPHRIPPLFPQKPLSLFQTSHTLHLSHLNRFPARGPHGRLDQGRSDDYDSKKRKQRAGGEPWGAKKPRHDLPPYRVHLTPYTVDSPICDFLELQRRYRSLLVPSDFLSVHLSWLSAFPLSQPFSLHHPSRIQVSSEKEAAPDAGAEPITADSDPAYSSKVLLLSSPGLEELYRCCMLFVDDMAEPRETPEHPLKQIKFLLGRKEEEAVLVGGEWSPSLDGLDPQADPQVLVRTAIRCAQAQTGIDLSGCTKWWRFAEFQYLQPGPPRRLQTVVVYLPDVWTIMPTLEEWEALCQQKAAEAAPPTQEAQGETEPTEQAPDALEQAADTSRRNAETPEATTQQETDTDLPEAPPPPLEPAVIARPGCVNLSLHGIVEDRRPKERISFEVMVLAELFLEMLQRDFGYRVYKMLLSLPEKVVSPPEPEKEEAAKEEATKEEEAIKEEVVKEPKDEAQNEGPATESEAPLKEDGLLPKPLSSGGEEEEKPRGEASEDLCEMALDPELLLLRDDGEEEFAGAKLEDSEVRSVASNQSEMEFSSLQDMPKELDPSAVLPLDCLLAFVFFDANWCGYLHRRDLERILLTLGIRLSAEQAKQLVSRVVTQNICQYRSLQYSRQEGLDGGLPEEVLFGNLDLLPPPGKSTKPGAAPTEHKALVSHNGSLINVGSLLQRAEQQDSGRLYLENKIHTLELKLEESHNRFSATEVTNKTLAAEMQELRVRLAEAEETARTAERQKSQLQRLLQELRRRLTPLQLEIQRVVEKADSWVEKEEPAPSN
UniProt Q16204: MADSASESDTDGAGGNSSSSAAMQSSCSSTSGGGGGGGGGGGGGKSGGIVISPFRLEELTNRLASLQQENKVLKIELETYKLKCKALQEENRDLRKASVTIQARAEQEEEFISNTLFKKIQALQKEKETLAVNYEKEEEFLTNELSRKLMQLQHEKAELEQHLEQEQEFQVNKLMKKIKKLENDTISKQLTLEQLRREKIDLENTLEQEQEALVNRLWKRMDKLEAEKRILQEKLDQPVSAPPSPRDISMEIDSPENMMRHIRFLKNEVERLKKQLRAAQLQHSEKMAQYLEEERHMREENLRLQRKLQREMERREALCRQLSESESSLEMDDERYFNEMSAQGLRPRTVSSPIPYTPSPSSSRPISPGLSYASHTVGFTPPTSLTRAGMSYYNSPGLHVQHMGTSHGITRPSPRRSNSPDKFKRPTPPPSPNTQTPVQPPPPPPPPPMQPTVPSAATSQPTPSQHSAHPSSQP
UniProt Q12834, whole entry, looked up: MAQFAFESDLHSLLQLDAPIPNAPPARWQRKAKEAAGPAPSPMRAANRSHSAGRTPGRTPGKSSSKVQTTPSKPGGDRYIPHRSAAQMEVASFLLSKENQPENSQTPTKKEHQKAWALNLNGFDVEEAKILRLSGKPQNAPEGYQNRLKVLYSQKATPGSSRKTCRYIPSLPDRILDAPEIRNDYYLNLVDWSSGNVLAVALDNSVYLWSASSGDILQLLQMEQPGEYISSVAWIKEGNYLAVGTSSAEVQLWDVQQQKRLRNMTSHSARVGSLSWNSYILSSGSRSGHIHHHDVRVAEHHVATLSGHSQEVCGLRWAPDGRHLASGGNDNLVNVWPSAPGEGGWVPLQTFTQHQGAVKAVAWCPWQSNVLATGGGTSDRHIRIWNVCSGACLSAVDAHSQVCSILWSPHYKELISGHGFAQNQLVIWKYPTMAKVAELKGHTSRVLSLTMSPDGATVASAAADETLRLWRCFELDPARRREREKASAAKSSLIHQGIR

[1] = compound: C/C(=N\NC(=O)C1=CC(=CC=C1)S(=O)(=O)N2CCOCC2)/C3=C(C=CC(=C3)Cl)O
Method in brief: as §1

[2] = compound: C1=CC(=C(C=C1Cl)C2=NC3=NC=CN=C3C(=N2)NC4=CC=NC=C4)F
Method in brief: as §1

[3] = compound: C1=CC(=CC=C1C2=NC3=C(N2)C=C(C=C3)C(=O)N)OC4=CC=C(C=C4)Cl
Method in brief: as §1

[4] = compound: C1=CC2=C(C=CC(=C2)/C=C\3/C(=O)NC(=NCC4=CC=CS4)S3)N=C1
Method in brief: as §1

[5] = compound: C1=CC2=NC=CN=C2C=C1/C=C/3\C(=O)NC(=O)S3
Method in brief: as §1

[6] = compound: C1=CC=C(C=C1)C2=NC(=C(N2)C3=CC=NC=C3)C4=CC(=C(C=C4)Cl)O
Method in brief: as §1

[7] = compound: C1=CC=C2C(=C1)C3=NNC4=CC=CC(=C43)C2=O
Method in brief: as §1

[8] = compound: C1CCN(C1)C(=O)NC2=CC=CC(=C2)NC3=NC=C(C(=N3)NCCC4=CN=CN4)Br
Method in brief: as §1

[9] = compound: C1CN(CCC1(CC2=CC=C(C=C2)Cl)N)C3=NC=NC4=C3C=CN4
Method in brief: as §1

IRAK-1-4 Inhibitor I = compound: C1COCCN1CCN2C3=CC=CC=C3N=C2NC(=O)C4=CC(=CC=C4)[N+](=O)[O-] [IRAK-1-4 Inhibitor I]
Method in brief: as §1

ibrutinib = compound: C=CC(=O)N1CCC[C@@H](n2nc(-c3ccc(Oc4ccccc4)cc3)c3c(N)ncnc32)C1 [ibrutinib]
Method in brief: as §1

[10] = compound: CC(=O)c1cnc2ccc(-c3cc(Cl)c(O)c(Cl)c3)nc2c1N[C@H]1CC[C@H](CN(C)C)CC1
Method in brief: as §1

ralimetinib = compound: CC(C)(C)Cn1c(N)nc2ccc(-c3[nH]c(C(C)(C)C)nc3-c3ccc(F)cc3)nc21 [ralimetinib]
Method in brief: as §1

[11] = compound: CC(C)(O)CC(=O)NCCn1ccc2ncnc(Nc3ccc(Oc4cccc(C(F)(F)F)c4)c(Cl)c3)c21
Method in brief: as §1

[12] = compound: CC(C)C1=C2N=C(C=C(N2N=C1)NCC3=CC=CC=C3)NCCCCCCN
Method in brief: as §1

[13] = compound: CC(C)C[C@@H](C=O)NC(=O)[C@H](CC(C)C)NC(=O)[C@H](CC(C)C)NC(=O)OCc1ccccc1
Method in brief: as §1

pinometostat = compound: CC(C)N(C[C@H]1O[C@@H](n2cnc3c(N)ncnc32)[C@H](O)[C@@H]1O)[C@H]1C[C@@H](CCc2nc3cc(C(C)(C)C)ccc3[nH]2)C1 [pinometostat]
Method in brief: as §1

[14] = compound: CC1=C(C(CC(=O)N1)C2=CC=C(C=C2)C(F)(F)F)C(=O)NC3=C(C=C4C(=C3)C=NN4)F
Method in brief: as §1

[15] = compound: CC1=C(C2=C(C=C1)C(=O)C3=CC=CC=C3N2CCCN)C
Method in brief: as §1

Measured: log2 fold change

CCPG1 isoform 5 (UniProt Q9ULG6)
inactive: erlotinib -0.124 | [1] -0.036 | [2] -0.2 | [3] 0.059 | [4] -0.037 | [5] 0.021 | [6] 0.013 | [7] -0.033 | [8] 0.015 | [9] -0.096 | IRAK-1-4 Inhibitor I 0.004 | ibrutinib -0.048 | [10] -0.018 | ralimetinib 0.056 | [11] 0.051 | [12] -0.042 | [13] 0.09 | pinometostat 0.175 | [14] 0.042 | [15] -0.125

CDC34 (UniProt P49427)
inactive: erlotinib 0.274 | [1] 0.029 | [2] 0.061 | [3] -0.081 | [4] 0.178 | [5] 0 | [6] -0.052 | [7] -0.033 | [8] -0.11 | [9] -0.038 | IRAK-1-4 Inhibitor I -0.066 | ibrutinib -0.062 | [10] -0.034 | ralimetinib 0.006 | [11] -0.125 | [12] -0.177 | [13] -0.068 | pinometostat -0.009 | [14] -0.002 | [15] 0.127

CCDC28A (UniProt Q8IWP9)
inactive: erlotinib -0.071 | [1] 0.084 | [2] -0.22 | [3] -0.013 | [4] -0.013 | [5] 0.049 | [6] -0.004 | [7] 0.014 | [8] -0.047 | [9] -0.103 | IRAK-1-4 Inhibitor I 0.122 | ibrutinib -0.008 | [10] 0.006 | ralimetinib 0.003 | [11] 0.151 | [12] -0.019 | [13] 0.082 | pinometostat 0.125 | [14] -0.013 | [15] 0.162

CCDC43 (UniProt Q96MW1)
inactive: erlotinib 0.036 | [1] 0.002 | [2] 0.025 | [3] 0.024 | [4] -0.033 | [5] 0.061 | [6] -0.002 | [7] -0.012 | [8] 0.003 | [9] 0.027 | IRAK-1-4 Inhibitor I 0.017 | ibrutinib -0.046 | [10] 0.116 | ralimetinib -0.034 | [11] 0 | [12] 0.045 | [13] 0.043 | pinometostat -0.079 | [14] 0.04 | [15] -0.029

CCDC174 (UniProt Q6PII3)
inactive: erlotinib -0.008 | [1] -0.021 | [2] -0.004 | [3] 0.008 | [4] -0.01 | [5] 0.017 | [6] 0.06 | [7] -0.048 | [8] -0.043 | [9] 0.029 | IRAK-1-4 Inhibitor I 0.078 | ibrutinib 0.026 | [10] -0.009 | ralimetinib -0.003 | [11] 0.071 | [12] 0.068 | [13] -0.042 | pinometostat 0.026 | [14] 0.049 | [15] -0.154

Random excerpt: two entries already listed
CCDC28A (UniProt Q8IWP9)
inactive: erlotinib -0.071 | [1] 0.084 | [2] -0.22 | [3] -0.013 | [4] -0.013 | [5] 0.049 | [6] -0.004 | [7] 0.014 | [8] -0.047 | [9] -0.103 | IRAK-1-4 Inhibitor I 0.122 | ibrutinib -0.008 | [10] 0.006 | ralimetinib 0.003 | [11] 0.151 | [12] -0.019 | [13] 0.082 | pinometostat 0.125 | [14] -0.013 | [15] 0.162

CCDC174 (UniProt Q6PII3)
inactive: erlotinib -0.008 | [1] -0.021 | [2] -0.004 | [3] 0.008 | [4] -0.01 | [5] 0.017 | [6] 0.06 | [7] -0.048 | [8] -0.043 | [9] 0.029 | IRAK-1-4 Inhibitor I 0.078 | ibrutinib 0.026 | [10] -0.009 | ralimetinib -0.003 | [11] 0.071 | [12] 0.068 | [13] -0.042 | pinometostat 0.026 | [14] 0.049 | [15] -0.154

Additional records

CBX3 (UniProt Q13185)
inactive: erlotinib -0.024 | [1] 0.032 | [2] 0.21 | [3] 0.045 | [4] 0.063 | [5] -0.005 | [6] -0.022 | [7] -0.02 | [8] 0.037 | [9] 0.024 | IRAK-1-4 Inhibitor I 0.004 | ibrutinib 0.008 | [10] -0.059 | ralimetinib -0.003 | [11] -0.009 | [12] -0.106 | [13] 0.016 | pinometostat -0.102 | [14] 0.015 | [15] -0.182

CCDC47 (UniProt Q96A33)
inactive: erlotinib 0.003 | [1] 0.047 | [2] 0.062 | [3] -0.023 | [4] 0.069 | [5] 0.021 | [6] -0.046 | [7] -0.024 | [8] 0.005 | [9] -0.003 | IRAK-1-4 Inhibitor I 0.009 | ibrutinib -0.013 | [10] -0.013 | ralimetinib -0.036 | [11] -0.146 | [12] -0.089 | [13] 0.07 | pinometostat -0.055 | [14] -0.002 | [15] 0.047

CCT6A (UniProt P40227)
inactive: erlotinib -0.02 | [1] 0 | [2] 0.043 | [3] -0.003 | [4] -0.01 | [5] -0.027 | [6] -0.006 | [7] 0.007 | [8] -0.018 | [9] 0.009 | IRAK-1-4 Inhibitor I 0.005 | ibrutinib -0.003 | [10] 0.008 | ralimetinib -0.003 | [11] -0.012 | [12] 0.016 | [13] -0.041 | pinometostat -0.055 | [14] 0.071 | [15] 0.02

CD46 isoform 2 (UniProt P15529)
inactive: erlotinib 0.034 | [1] 0 | [2] -0.018 | [3] -0.007 | [4] -0.072 | [5] -0.002 | [6] 0.023 | [7] -0.011 | [8] -0.036 | [9] 0.056 | IRAK-1-4 Inhibitor I 0.023 | ibrutinib 0.096 | [10] 0.015 | ralimetinib -0.064 | [11] 0 | [12] 0.13 | [13] 0.025 | pinometostat -0.004 | [14] 0.015 | [15] 0.001

CCDC90B (UniProt Q9GZT6)
inactive: erlotinib -0.04 | [1] -0.013 | [2] 0.082 | [3] -0.021 | [4] 0.078 | [5] 0.046 | [6] -0.04 | [7] 0.064 | [8] -0.012 | [9] 0.002 | IRAK-1-4 Inhibitor I -0.059 | ibrutinib -0.012 | [10] -0.022 | ralimetinib -0.075 | [11] -0.017 | [12] 0.043 | [13] -0.036 | pinometostat -0.131 | [14] -0.018 | [15] 0.131

CBR4 (UniProt Q8N4T8)
inactive: erlotinib 0.012 | [1] 0.01 | [2] -0.001 | [3] 0.033 | [4] 0 | [5] -0.028 | [6] 0.041 | [7] 0.008 | [8] -0.02 | [9] 0.061 | IRAK-1-4 Inhibitor I 0.067 | ibrutinib 0.024 | [10] -0.017 | ralimetinib -0.013 | [11] -0.025 | [12] 0.023 | [13] -0.031 | pinometostat -0.018 | [14] 0.028 | [15] 0.031

CCAR2 isoform 2 (UniProt Q8N163)
active: [12] -0.477
inactive: erlotinib 0.027 | [1] 0.063 | [2] 0.033 | [3] -0.014 | [4] 0.071 | [5] 0 | [6] 0.014 | [7] -0.039 | [8] 0.001 | [9] 0.007 | IRAK-1-4 Inhibitor I -0.111 | ibrutinib -0.061 | [10] -0.037 | ralimetinib 0.027 | [11] -0.222 | [13] -0.004 | pinometostat -0.039 | [15] -0.252

CDAN1 (UniProt Q8IWY9)
active: [15] -0.398
inactive: erlotinib -0.031 | [1] 0.048 | [2] -0.171 | [3] -0.011 | [4] 0.039 | [5] 0.066 | [6] 0.019 | [7] -0.057 | [8] 0.109 | [9] 0.03 | IRAK-1-4 Inhibitor I 0.057 | ibrutinib -0.001 | [10] -0.044 | ralimetinib -0.036 | [11] -0.168 | [12] -0.051 | [13] -0.006 | pinometostat 0.026

CCDC6 (UniProt Q16204)
inactive: erlotinib 0.017 | [1] -0.014 | [2] 0.02 | [3] -0.037 | [4] 0.03 | [5] 0.004 | [6] -0.073 | [7] -0.012 | [8] 0 | [9] 0.011 | IRAK-1-4 Inhibitor I 0.056 | ibrutinib -0.019 | [10] -0.021 | ralimetinib -0.029 | [11] 0 | [12] 0.048 | [13] 0.047 | pinometostat -0.003 | [14] -0.001 | [15] 0.015

CBL (UniProt P22681)
inactive: erlotinib 0.013 | [1] 0.036 | [2] 0.01 | [3] 0 | [4] -0.024 | [5] -0.004 | [6] 0.023 | [7] -0.01 | [8] -0.081 | [9] -0.013 | IRAK-1-4 Inhibitor I -0.009 | ibrutinib 0.027 | [10] -0.067 | ralimetinib 0.021 | [11] 0.006 | [12] 0.035 | [13] -0.002 | pinometostat -0.07 | [14] -0.041 | [15] 0.006

CDC20 (UniProt Q12834)
inactive: erlotinib 0.017 | [1] 0.144 | [2] -0.058 | [3] -0.008 | [4] -0.041 | [5] 0.077 | [6] -0.023 | [7] -0.089 | [8] -0.099 | [9] -0.06 | IRAK-1-4 Inhibitor I -0.146 | ibrutinib -0.097 | [10] -0.321 | ralimetinib 0.084 | [11] 0.02 | [12] -0.247 | [13] 0.23 | pinometostat 0 | [15] -0.029

Source: the supplement of paper PMC10849652
